Source: publication PMC2631628

The chains behind the UniProt entries cited, without tags or fusion partners. Where a name states a change or a piece, a line headed by the entry shows the natural chain unless it says otherwise.
UniProt P09651: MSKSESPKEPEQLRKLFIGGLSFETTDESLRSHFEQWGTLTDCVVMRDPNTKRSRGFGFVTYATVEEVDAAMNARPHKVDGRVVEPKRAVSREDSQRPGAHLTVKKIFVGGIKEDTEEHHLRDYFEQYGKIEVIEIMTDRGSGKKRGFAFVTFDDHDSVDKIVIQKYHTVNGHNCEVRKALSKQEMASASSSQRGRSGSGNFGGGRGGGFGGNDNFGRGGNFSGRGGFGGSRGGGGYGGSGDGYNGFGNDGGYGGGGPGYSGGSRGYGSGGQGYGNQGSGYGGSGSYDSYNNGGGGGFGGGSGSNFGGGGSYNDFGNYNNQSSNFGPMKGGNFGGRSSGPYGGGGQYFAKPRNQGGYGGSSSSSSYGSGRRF
UniProt P14866: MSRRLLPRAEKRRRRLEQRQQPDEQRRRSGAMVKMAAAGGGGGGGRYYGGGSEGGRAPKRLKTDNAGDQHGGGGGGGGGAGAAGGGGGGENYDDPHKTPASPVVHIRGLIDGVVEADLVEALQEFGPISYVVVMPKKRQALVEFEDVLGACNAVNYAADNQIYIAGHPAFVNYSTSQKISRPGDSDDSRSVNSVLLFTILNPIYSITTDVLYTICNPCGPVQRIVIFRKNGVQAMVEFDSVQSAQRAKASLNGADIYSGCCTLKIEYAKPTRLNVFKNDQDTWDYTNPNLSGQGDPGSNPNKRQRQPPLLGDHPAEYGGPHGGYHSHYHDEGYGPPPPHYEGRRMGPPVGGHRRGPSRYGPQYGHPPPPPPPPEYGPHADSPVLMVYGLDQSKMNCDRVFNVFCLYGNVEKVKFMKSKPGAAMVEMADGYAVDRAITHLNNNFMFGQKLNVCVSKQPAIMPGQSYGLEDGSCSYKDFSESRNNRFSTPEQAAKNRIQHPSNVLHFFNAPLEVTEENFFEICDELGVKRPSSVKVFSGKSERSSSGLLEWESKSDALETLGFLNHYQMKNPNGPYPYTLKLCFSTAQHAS
UniProt P26599: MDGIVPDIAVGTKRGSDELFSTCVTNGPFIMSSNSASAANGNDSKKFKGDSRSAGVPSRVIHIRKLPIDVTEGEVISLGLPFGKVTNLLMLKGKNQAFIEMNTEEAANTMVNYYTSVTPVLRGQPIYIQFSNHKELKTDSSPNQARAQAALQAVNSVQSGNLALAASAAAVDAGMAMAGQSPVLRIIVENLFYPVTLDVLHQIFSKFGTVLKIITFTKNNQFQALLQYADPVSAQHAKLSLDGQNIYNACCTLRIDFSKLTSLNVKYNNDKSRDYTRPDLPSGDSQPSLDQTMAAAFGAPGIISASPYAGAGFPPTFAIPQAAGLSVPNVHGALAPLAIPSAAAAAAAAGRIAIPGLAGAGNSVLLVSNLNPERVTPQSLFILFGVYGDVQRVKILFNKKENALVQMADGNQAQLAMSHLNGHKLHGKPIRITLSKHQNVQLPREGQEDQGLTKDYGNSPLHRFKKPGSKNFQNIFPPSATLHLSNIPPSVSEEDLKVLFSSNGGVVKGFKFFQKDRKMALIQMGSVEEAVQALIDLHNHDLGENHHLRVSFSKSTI

What was measured:
Assay in all cases: pull-down
Conditions in all cases: coupled to agarose beads, protein in an extract
[1] = target: hnRNP A1 (HeLa nuclear extract) (human (HeLa)) (UniProt P09651)
[2] = target: hnRNP L (HeLa nuclear extract) (human (HeLa)) (UniProt P14866)
[3] = target: PTB (HeLa nuclear extract) (human (HeLa)) (UniProt P26599)

Sequence: AACGUAGGCGUUAUGAUUUCUGACCUAUGUA [miR-379 loop]
- binding result [1]: no binding

Sequence: UUGCACUACAAGAAGAAUGUAGUUGUGCAAAU [miR-19a loop]
- binding result [1]: no binding

Sequence: AAUAUUGGCGUUAAGAUUCUAAAAUUAUCUCCAGUAUUAA [miR-16-1 loop]
- binding result [1]: no binding

Sequence: GUUGUAUAGUUUUAGGGUCACACCCACCACUGGGAGAUAACUAUACAAUC [let-7a-1 loop]
- binding result [1]: binds
- binding result [2]: binds

Sequence: AGUGCUGAUGCUGUCUAUUCUAAAGGUACAGUACUG [miR-101-1 loop]
- binding result [3]: binds
- binding result [1]: binds

Sequence: GACUGAUGUUGACUGUUGAAUCUCAUGGCAACACCAGUCGA [miR-21 loop]
- binding result [1]: no binding

Construct, isoform or probe ends are uncertain for at least one entry. Results from cells or extracts need not show a direct contact. For some assays here: No signal at the amounts used counts as a negative.
